## Primary screen of a compound library

The values are deposited in ChEMBL (CHEMBL3988442, “University of Dundee, Small-Polar-MMV Screening Library” (2021)).

Mtb glucose medium: 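Phenotypic screen: M. tuberculosis growth, glucose 7H9 medium, 3 days; the read-out is not stated. Concentration: 50 µM. Higher reads as more growth inhibition (inferred: compounds with an IC50 in retests scored well above the rest). Size under these conditions: about 69,000 compounds, about 760 of them at 50% or above in at least one test.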
Mtb cholesterol medium: 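Phenotypic screen: M. tuberculosis growth, cholesterol and DPPC medium, 4 days; the read-out is not stated. Tested at 50 µM. Direction is inferred from retests: higher values go with more growth inhibition. Size under these conditions: about 69,000 compounds, about 370 of them at 50% or above in at least one test.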

Results are given as percent effect.
How 0% and 100% were set is not recorded. Most values in the screen are low, and negative values occur.
Compounds were drawn at random from those tested, without regard to their results.
Two or more numbers in one place are separate tests of the same structure; such repeats can differ widely.

SMILES	Mtb glucose medium	Mtb cholesterol medium
CCOc1cc(CN(C)Cc2ccccc2)ccc1OC(F)F	11.76	14.91
Cc1nn(-c2ccccc2)nc1C(=O)N1CCCC(n2cccn2)C1 (centres undefined)	28.34	23.06
O=S(=O)(NCc1ccccc1Cn1cncn1)N1CCCCC1	15.24	7.982
[H][C@@]12COC[C@@H](Cc3nnc(C)o3)[C@]1([H])CN(C(=O)c1ccco1)C2	0.03206 and 12.55	15.68
O=C1CCOCCN1Cc1ccc(C(F)(F)F)c(F)c1	-3.929 and -45.26	-22.59
CN1CCCC(Cc2ccnc3ccncc23)CC1 (centres undefined)	-30.66	-35.35
NC(=O)Cn1ccc(NC(=O)C2(c3ccc(F)cc3)CC2)n1	-37.89	-2.804 and 6.254
N#Cc1ccc(SCCC(=O)N(Cc2cccnc2)C2CC2)cc1	-6.818	7.84
Cc1cccc(-n2cc(C(=O)N3CCCC(n4ccnc4)C3)nn2)c1 (centres undefined)	-27.81	-24.16
COCCN1CCCc2sc(C(=O)Nc3ccc(C)nc3)nc21.O=C(O)C(F)(F)F	-30.28	-67.27
Cc1cnn(C2CCCN(C(=O)C3=NN(C)C(=O)CC3)C2)c1 (centres undefined)	15.28	-19.07
c1nc2n(n1)CC(NCc1csc(-c3ccsc3)n1)CC2 (centres undefined)	-4.451	4.435
Cc1ccc(N2CCCC(NCc3ccc(-n4ccnc4)cc3)C2)nn1 (centres undefined)	-26.7	-12.19
COc1cccc(-c2nc(C)c(C(=O)NCCC(=O)O)s2)c1	-5.788	9.544
CN(C)C(=O)c1c[nH]nc1-c1ccc(CNC(=O)c2cnccn2)cc1	-9.964	7.451 and 2.557
O=C(Nc1ccccn1)C1=NN(c2ccccc2)C(=O)CN1	-9.934	-0.05688
O=S(=O)(Cc1ccccc1)NCC1CCN(c2cnccn2)CC1	16.59	4.094
COc1ccc(C)cc1CSCCn1nc2ccccn2c1=O	41.92	12.83
Cn1ccc(C2CCCCN2C(=O)c2cccc(-n3cccn3)c2)n1 (centres undefined)	-20.18	-19.27 and 0.9728
COc1ccccc1CNC(=O)CS(=O)(=O)Cc1ccccc1	12.54	7.206
CCS(=O)(=O)N1CCC(NC(=O)c2cc3ccccc3cc2O)CC1	9.056	2.032
O=C(O)C(F)(F)F.[H][C@]12CCN(Cc3nccs3)[C@@]1([H])C[C@@H](C(=O)N1CCOCC1)O2	-20.56	-2.553 and -28.81
CCN(CC1CCOC1)C(=O)c1cc(Cl)c2c(c1)OCO2 (centres undefined)	-31.3	-6.645
Cc1nc(C)n(CC2CN(CCc3ccccc3Cl)CCO2)n1 (centres undefined)	-56.17	-7.634 and 20.22
COc1cc(NCc2ccccc2-n2cncn2)nc(N)n1	-2.559	-16.41
CC1CN(c2ccc(C#N)cn2)CCN1c1ccc2nncn2n1 (centres undefined)	-2.949	-12.44
CCN1CCC2(CC1)CC(COC)N(Cc1csc(C)n1)C2.O=C(O)C(F)(F)F.O=C(O)C(F)(F)F (centres undefined)	-0.7407 and 19.37	-0.4515
CC(C)CN1Cc2nc(N3CCCC(C)C3)ncc2C1=O (centres undefined)	-20.83	-11.52
COc1ccc2oc(C(C)NC(=O)NCC(C)(C)C(N)=O)c(C)c2c1 (centres undefined)	-17.4	-20.71
CC(C)c1nc2n(n1)CC(NCC(=O)N(C)Cc1cccs1)CC2 (centres undefined)	-8.286 and -3.477	28.08 and -1.071
CCc1nc(CN2CCCN(CC(=O)N3CCOCC3)CC2)no1	-42.58	-35.87
CN(CCc1ccccn1)c1cc(N2CCCCC2)ncn1	24.03	1.636
OC(c1ccccc1)c1cn(C2CCN(Cc3nccs3)CC2)nn1 (centres undefined)	4.523 and 13.19	11.91
CN1CCC(Cc2noc(-c3cn(Cc4ccccc4Cl)nn3)n2)CC1	14.12	14.79 and 1.718
CC(C)c1nn(C)c(Cl)c1CNCc1ccc2c(c1)OCCO2.Cl	-24.64	3.79
COC(=O)N1CCc2ccccc2C1C(=O)NCc1cccs1 (centres undefined)	2.491 and -2.036	22.25
Cn1c(Cn2ccnc2)nnc1C1CCN(C(=O)C2(C)CC2)CC1	-24.73	-27.25
Cc1nc(-c2ccsc2)ccc1C(=O)O	-2.441 and 11.55	-17.26
Cc1nn(C)c(C)c1CCn1cncc1-c1ccc2c(c1)CC(C)N2C.Cl (centres undefined)	9.689	12.01 and 19.59
CS(=O)(=O)N1CCN(C(=O)c2[nH]c3ccc(Cl)cc3c2Cl)CC1	34.79	11.35
CNC(=O)COC1COC2(CCN(c3ccc(C#N)cc3)CC2)C1.O=C(O)C(F)(F)F (centres undefined)	-11.51	14.88
CN(Cc1ccc(F)cc1)CC1(O)CCN(C(=O)c2ccn(C)n2)C1 (centres undefined)	7.034	20.66
Nc1nc2c(c(N3CCC(CN4CCCC4=O)CC3)n1)CCNCC2	16.31	30.77
O=C(O)C(F)(F)F.[H][C@@]12COC[C@@H](CC(=O)N3CCCC3)[C@]1([H])CN(C(=O)c1cccnc1)C2	2.117	8.073
Cc1cc(C)n(Cc2cc(C(=O)N3CCCC3c3ccccn3)n[nH]2)n1 (centres undefined)	0.7373	-1.017
Cc1cccc(C(=O)N2CCC(Cc3cnc4[nH]ccc4c3)CC2)n1	24.46	-7.927
Cc1ccc2c(n1)N(CC(C)C)CCN(C(=O)Cc1ccccn1)C2.O=C(O)C(F)(F)F.O=C(O)C(F)(F)F	6.211 and -5.862	0.601
CC(=O)N1CCC(C(=O)NC(C)c2cccc(OC(F)F)c2)CC1 (centres undefined)	-2.372	-14.49
NC(=O)c1nc(-c2ccc(Cl)cc2Cl)oc1N	10.14	1.48
CCn1nccc1CNC(=O)NC1CCCCC1	-58.83	-17.02
O=C1C(CS(=O)(=O)Nc2ccc(Cl)cc2)=NC(=O)n2cccc21	33.04	8.782
Cc1cnc(CN(C)C2CCN(Cc3nc4c(F)cccc4[nH]3)C2)o1 (centres undefined)	-12.95	-27.91
Cc1cc(C)c(CNC(=O)N2CCCC2C(N)=O)c(=O)[nH]1 (centres undefined)	-21.2	-28.25
O=C(CCNC(=O)C1CCCC1)NCc1cccnc1-n1cncn1	-14.22	8.556
CCCC(=O)NCCc1cc(NC)nc(-c2ccccn2)n1	14.38	-6.604 and -12.19
CCCc1nc(C(=O)N(C)Cc2cc(CC)no2)cs1	38.41	44.09 and 35.73
Cc1cccc(OCCCNC(=O)Cn2ccc(C)cc2=O)c1	9.221	-25.7
CCS(=O)(=O)N1CCC(c2nn(CCN(C)C)c3ncccc23)C1 (centres undefined)	-22.55	-18.54 and 0.2849
CCCn1cc(-c2cc(C(=O)N(C)C)c3cccc(C)c3n2)cn1	19.14	7.609
CNC(=O)C(C)(C)N1CCC[C@H]1C(=O)NC1CCCC1	-18.84 and -13.54	-23.7
O=C(O)C(F)(F)F.[H][C@@]12CC(=O)N(c3ccsc3)[C@@]1([H])CCN2Cc1ccco1	-7.754 and -29.31	-19.12
CCc1ccsc1C(=O)N1CCN(C(=O)CC(F)(F)F)CC1	17.3	20.23
CC(C)N1CCC(CC(=O)NCCc2cc(O)ncn2)CC1	-13.3 and -1.908	-19.2
CC(=O)NCc1cc2n(n1)CCN(Cc1cccc(Cl)c1F)C2	1.151	-20.9
CCCN(Cc1ccc(C#N)cc1)Cc1nnsc1Cl	3.181	20.64
Cc1ccc(N2CCCN(C(=O)c3c(C)oc(C)c3C)CC2)nn1	-9.818	-7.604

Some entries from above, unchanged:

SMILES,Mtb glucose medium,Mtb cholesterol medium
Cc1nn(-c2ccccc2)nc1C(=O)N1CCCC(n2cccn2)C1 (centres undefined),28.34,23.06
CCS(=O)(=O)N1CCC(NC(=O)c2cc3ccccc3cc2O)CC1,9.056,2.032
CCn1nccc1CNC(=O)NC1CCCCC1,-58.83,-17.02
[H][C@@]12COC[C@@H](Cc3nnc(C)o3)[C@]1([H])CN(C(=O)c1ccco1)C2,0.03206 and 12.55,15.68
O=C1CCOCCN1Cc1ccc(C(F)(F)F)c(F)c1,-3.929 and -45.26,-22.59
Cc1ccc(N2CCCC(NCc3ccc(-n4ccnc4)cc3)C2)nn1 (centres undefined),-26.7,-12.19